81 compounds from the supplement of paper PMC11060735 can be followed below.

Structures can show the parent of a compound that is named as a salt. ± gives the standard deviation of the averaged measurements. Over roughly 1,800 compounds, “GFP- (p16Ink4a-) cell count relative to negative-control wells” has its median near 0.99; the lowest 2% begin near 0.5. This is one part of the list.

This assay has as its system mouse p16Ink4a+/- lung fibroblasts (INKBRITE, bleomycin-injured). As to the kind of experiment: GFP- (p16Ink4a-) cell count relative to negative-control wells (fold of vehicle); higher = more p16Ink4a- cells surviving. The settings on record: 1 µM; 3 days.
As for `O=C(O)P(=O)(O)O` [Foscarnet], the GFP- was determined as 1.06.

`Nc1ccn([C@@H]2O[C@H](CO)[C@@H](O)[C@H]2O)c(=O)n1` [Cytidine] registered a GFP- of 0.904.

The compound `COc1cc(NC(=O)c2ccc(-c3ccc(Cl)cc3)o2)cc(OC)c1` yielded a GFP- of 1.02. In turn, `CC1Cc2ccccc2N1NC(=O)c1ccc(Cl)c(S(N)(=O)=O)c1` (stereo unspecified) [Indapamide] came in with a GFP- of 0.939.

`Nc1nc(O)c2ncn(COCCO)c2n1` [Aciclovir] registered a GFP- of 0.983. `Cc1ccc(=O)n(-c2ccccc2)c1` [Pirfenidone] came in with a GFP- of 1.14.

Compound `CC1(C)CCC2=C(O1)c1ccccc1C(=O)C2=O` [beta-Lapachone] registered a GFP- of 1.08. Take `CCc1cccc(CC)c1NC(=O)N1Cc2[nH]nc(NC(=O)c3ccc(N4CCN(C)CC4)cc3)c2C1`: the GFP- is 1.02 ± 0.27. In the case of `CCOc1ccccc1O[C@H](c1ccccc1)[C@H]1CNCCO1` [Reboxetine] it was 1.08; in that of `COc1ccc(-n2nc(C(N)=O)c3c2C(=O)N(c2ccc(N4CCCCC4=O)cc2)CC3)cc1` [Apixaban], 0.895; in that of `CCOC(=O)[C@H](CCc1ccccc1)N[C@H]1CCc2ccccc2N(CC(=O)O)C1=O` [Benazepril], 1.01. On to `COc1ccc(-c2nc(N3CCOCC3)c3sc(CN(C)c4ncc(C(=O)NO)cn4)cc3n2)cn1` [Fimepinostat], for which the GFP- came out at 0.491 ± 0.025.

`CC(C)(C)c1cc(C(C)(C)C)c(NC(=O)c2cnc3ccccc3c2O)cc1O` [Ivacaftor]: the GFP- turned out to be 1.1. In the case of `Nc1nc(OCc2cc(Br)cs2)c2[nH]cnc2n1` [Lomeguatrib] it was 1.02 ± 0.11; in that of `C=CC(=O)Nc1cccc(Nc2nc(Nc3ccc(Oc4ccnc(C(=O)NC)c4)cc3)ncc2F)c1`, 0.949; in that of `COCCCN1CCC(NC(=O)c2cc(Cl)c(N)c3c2OCC3)CC1` [Prucalopride], 1.16.

In the case of `NC[C@H](O)c1ccc(O)c(O)c1` [Norepinephrine], the GFP- was found to be 1.23. Turning to `O=C(Nc1ccccc1)N1CCN(c2nc(-c3ccccc3)ns2)CC1`, the GFP- stood at 1.01. In the case of `CN1CCN(S(=O)(=O)c2ccc(-c3cnc(N)c(C(=O)Nc4cccnc4)n3)cc2)CC1` it was 0.998. In turn, `C=CC(=O)Nc1ccc2ncnc(Nc3cccc(Br)c3)c2c1` yielded a GFP- of 0.994. `CCC(C)(Oc1ccc(C2(c3ccc(OC(C)(CC)C(=O)O)cc3)CCCCC2)cc1)C(=O)O` (stereo unspecified) [Clinofibrate]: the GFP- is 0.881. Turning to `NC(=O)Nc1cc(-c2cccc(F)c2)sc1C(=O)N[C@H]1CCCNC1`, the GFP- was found to be 0.751. For the compound `O=C(NCCN1CCOCC1)c1ccc(Cl)cc1` [Moclobemide], the GFP- was 0.85. Regarding `c1coc(CNc2ncnc3[nH]cnc23)c1` [Kinetin], the GFP- amounted to 0.99. `Oc1ccc(-c2nc(-c3ccc(F)cc3)c(-c3ccncc3)[nH]2)cc1` registered a GFP- of 1.02. For `Cc1cc(C(C)Nc2ccccc2)c2nc(N3CCOCC3)cc(=O)n2c1` (stereo unspecified), the GFP- stood at 0.905. Under `O=NN(CCCl)C(=O)NC1CCCCC1` [Lomustine] stands 1.02. In the case of `CO/N=C(/C(=O)N[C@@H]1C(=O)N2C(C(=O)O)=C(CSC(=O)c3ccco3)CS[C@H]12)c1csc(N)n1` [Ceftiofur HCl] it was 1.04; in that of `O=C(Nc1ccc(-c2ccnc(Nc3ccc(N4CCOCC4)cc3)n2)cc1)[C@@H]1CCCN1`, 1.047 ± 0.0043. `COC(=O)[C@H](Cc1ccccc1)NC(=O)[C@@H](N)CC(=O)O` [Aspartame] returned a GFP- of 0.966. With `CCNC(=O)c1noc(-c2cc(C(C)C)c(O)cc2O)c1-c1ccc(CN2CCOCC2)cc1` [Luminespib (NVP-AUY922)], the GFP- amounted to 0.542.

`Cn1cnc([N+](=O)[O-])c1Sc1ncnc2[nH]cnc12` [Azathioprine] had a GFP- of 0.954. With `Oc1c(Cl)cc(Cl)c2cccnc12` [Chloroxine], the GFP- stood at 0.809. Compound `COc1cc([C@@H]2c3cc4c(cc3[C@@H](O[C@@H]3O[C@@H]5CO[C@@H](C)O[C@H]5[C@H](O)[C@H]3O)[C@H]3COC(=O)[C@H]23)OCO4)cc(OC)c1O` [Etoposide] returned a GFP- of 0.985. With `O=C(O)CCNC(=O)c1ccccc1` [Betamipron], the GFP- was found to be 1.06. `CC(C)OC(=O)C(C)(C)Oc1ccc(C(=O)c2ccc(Cl)cc2)cc1` [Fenofibrate] gave a GFP- of 0.949. Under `O=C1[C@H](CC[C@H](O)c2ccc(F)cc2)[C@@H](c2ccc(O)cc2)N1c1ccc(F)cc1` [Ezetimibe] stands 0.992; under `COc1cc(C2Oc3ccc(C4Oc5cc(O)cc(O)c5C(=O)C4O)cc3OC2CO)ccc1O` (stereo unspecified) [Silymarin], 1.04; under `CC(C)(C)c1ccc(-c2nc3ccccc3[nH]2)cc1`, 1.08.

Take `NC(=O)[C@@H](CCC(F)(F)F)N(Cc1ccc(-c2ncon2)cc1F)S(=O)(=O)c1ccc(Cl)cc1` [Avagacestat]: the GFP- amounted to 0.921. In the case of `COC(=O)[C@H]1[C@H]2C[C@@H]3c4[nH]c5cc(OC)ccc5c4CCN3C[C@H]2C[C@@H](OC(=O)c2cc(OC)c(OC)c(OC)c2)[C@@H]1OC` [Reserpine] it was 0.806; in that of `C#C[C@]1(OC(C)=O)CC[C@H]2[C@@H]3CCC4=C[C@@H](OC(C)=O)CC[C@@H]4[C@H]3CC[C@@]21C` [Ethynodiol Diacetate], 0.914; in that of `Cc1ccc(C(=O)Nc2cccc(C(F)(F)F)c2)cc1Nc1nc(-c2cccnc2)nc2c1cnn2C`, 0.964. `C[C@@](Cc1ccc(O)c(O)c1)(NN)C(=O)O` [S-(-)-carbidopa, Carbidopa] yielded a GFP- of 0.981.

For `COC(=O)[C@]12CCC(C)(C)C[C@@H]1[C@@H]1C(=O)C=C3[C@]4(C)C=C(C#N)C(=O)C(C)(C)[C@@H]4CC[C@@]3(C)[C@]1(C)CC2` [Bardoxolone Methyl], the GFP- is 0.406. Consider `Cc1c(-c2ccc(O)cc2)n(Cc2ccc(OCCN3CCCCCC3)cc2)c2ccc(O)cc12` [Bazedoxifene], for which the GFP- was determined as 0.948. With `Nc1nc(Cl)nc2c1ncn2[C@H]1C[C@H](O)[C@@H](CO)O1` [Cladribine], the GFP- was found to be 0.779.

`CC(=O)c1c(C)c2cnc(Nc3ccc(N4CCNCC4)cn3)nc2n(C2CCCC2)c1=O` [Palbociclib] had a GFP- of 0.847. The compound `COC(=O)Nc1nc2cc(Sc3ccccc3)ccc2[nH]1` [Fenbendazole] gave a GFP- of 0.741. In the case of `CN1C(CCl)Nc2cc(Cl)c(S(N)(=O)=O)cc2S1(=O)=O` (stereo unspecified) [Methyclothiazide] it was 0.898.

In turn, `C#C[C@]1(O)CC[C@H]2[C@@H]3CCc4cc(O)ccc4[C@H]3CC[C@@]21C` [Ethinyl Estradiol] showed a GFP- of 1.04. `CC(C(=O)O)c1ccc2c(c1)Cc1cccnc1O2` (stereo unspecified) [Pranoprofen]: the GFP- was 1.17.

Take `CCOC(=O)[C@H](CCc1ccccc1)N[C@@H](C)C(=O)N1Cc2cc(OC)c(OC)cc2C[C@H]1C(=O)O` [Moexipril]: the GFP- stood at 0.982. In turn, `CC(C(=O)O)c1cccc(C(=O)c2ccccc2)c1` (stereo unspecified) [Ketoprofen] yielded a GFP- of 1.03. `Nc1ccc(S(=O)(=O)Nc2ccccn2)cc1` [Sulfapyridine] displayed a GFP- of 0.965. On to `C=C1c2cccc(O)c2C(O)=C2C(=O)[C@]3(O)C(O)=C(C(N)=O)C(=O)[C@@H](N(C)C)[C@@H]3[C@@H](O)[C@H]12` [Methacycline], for which the GFP- is 1.03.

Turning to `CC(C)CCN1c2nc(Nc3cc(F)c(O)c(F)c3)ncc2N(C)C(=O)C1C` (stereo unspecified), the GFP- is 0.995. In the case of `CO/N=C(/C(=O)N[C@H]1C(=O)N2C(C(=O)O)=C(Cn3ccc(=N)n3CCO)CS[C@H]12)c1csc(N)n1` [Cefoselis Sulfate] it was 0.918; in that of `Cc1cccc(-c2[nH]c(C(C)(C)C)nc2-c2ccc3c(c2)OCO3)n1`, 0.933. Regarding `CCOC(=O)[C@H]1O[C@@H]1C(=O)N[C@@H](CC(C)C)C(=O)NCCC(C)C` [Aloxistatin], the GFP- turned out to be 0.833.

Compound `Nc1ncnc2[nH]nc(Nc3ccc(F)cc3)c12` came in with a GFP- of 0.966. Regarding `CCn1cc(C(=O)O)c(=O)c2cc(F)c(N3CCNC(C)C3)c(F)c21` (stereo unspecified) [Lomefloxacin], the GFP- was determined as 1.07. As for `O=C1c2ccc(Nc3ccc(F)cc3F)cc2CCc2ccc(OC[C@H](O)CO)cc21` [Skepinone-L], the GFP- was 1.11. `COc1ccc(-c2coc3cc(O)cc(O)c3c2=O)cc1` [Biochanin A] had a GFP- of 1.12.

Compound `CCOc1cc([C@@H](CS(C)(=O)=O)N2C(=O)c3cccc(NC(C)=O)c3C2=O)ccc1OC` [Apremilast] gave a GFP- of 0.919.

As to `CC(C)N(CCC(=O)c1ccc2ccccc2c1)Cc1ccccc1`, the GFP- was determined as 0.897 ± 0.031. Regarding `Nc1ccc(S(=O)(=O)Nc2ncccn2)cc1` [Sulfadiazine], the GFP- came to 0.885. For `O=C(O)CCCC[C@@H]1SC[C@@H]2NC(=O)N[C@@H]21` [Biotin, Vitamin B7], the GFP- stood at 1.14.

`CNCCc1ccccn1` [Betahistine] gave a GFP- of 1.04. Compound `CC(=O)O[C@]1(C(C)=O)CC[C@H]2[C@@H]3C[C@H](C)C4=CC(=O)C=C[C@]4(C)[C@@]3(F)[C@@H](O)C[C@@]21C` [Fluorometholone Acetate] displayed a GFP- of 1.14.

The compound `NCCCCCC(=O)O` [Aminocaproic Acid] had a GFP- of 0.867. Turning to `CC(C)CCNC(=O)[C@H](CC(C)C)NC(=O)[C@H]1O[C@@H]1C(=O)O` [Loxistatin Acid], the GFP- was 0.941. `Cc1ccnc2c1NC(=O)c1cccnc1N2C1CC1` [Nevirapine] yielded a GFP- of 1.06. Under `CC[C@@H]([C@H](C)O)n1ncn(-c2ccc(N3CCN(c4ccc(OC[C@@H]5CO[C@@](Cn6cncn6)(c6ccc(F)cc6F)C5)cc4)CC3)cc2)c1=O` [Posaconazole] stands 1.04; under `Oc1cc2c(cc1O)[C@@H]1c3ccc(O)c(O)c3OC[C@]1(O)C2` [Hematoxylin], 0.962; under `CCCCCCCN(CC)CCCC(O)c1ccc(NS(C)(=O)=O)cc1` (stereo unspecified) [Ibutilide], 0.957. Regarding `COc1ccccc1N1CCN(CCN2C(=O)CC3(CCCC3)CC2=O)CC1` [Bmy 7378 Dihydrochloride], the GFP- was 1.05. On to `Cc1ccc(-n2nc(C)c(N=Nc3cccc(-c4cccc(C(=O)O)c4)c3O)c2O)cc1C` [Eltrombopag], for which the GFP- was 0.82.

The compound `O=C(NS(=O)(=O)c1ccc(Br)s1)c1ccc(Cl)cc1Cl` [Tasisulam] displayed a GFP- of 1.08. As for `CNCc1ccc(-c2[nH]c3cc(F)cc4c3c2CCNC4=O)cc1` [Rucaparib], the GFP- stood at 0.817 ± 0.037.

Compound `CCNC(=O)CCC/C=C\C[C@@H]1[C@@H](/C=C/C(O)CCc2ccccc2)[C@@H](O)C[C@@H]1O` (stereo partly specified) [Bimatoprost] came in with a GFP- of 1.14.
